# Screen size: about 390,000 compounds; about 610 (0.16%) were called active. The shares of active, inactive and inconclusive entries below differ from those in the screen. Calls follow the shape of the dose curve; as a rule, active = well fitted inhibition curve with a large enough effect; inconclusive = small, poorly fitted or top-dose-only effect, or effect the other way, or another doubt; inactive = no such curve, though single readings can be large or run the other way. A potency beside an inconclusive call is a rough fit, not a confirmed value.
# Test: Nrf2 qHTS screen for inhibitors: counterscreen for cytotoxicity
# Settings: A549 ARE-Fluc cells, CellTiter-Fluor viability, 18-24 h; activity change, negative = cytotoxicity: at 46 µM (top of the series)
# Summary of the method: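 A549 ARE-Fluc cells in 5% FBS OPTI-MEM, 5000 cells/well, rested 2 h then exposed to compounds in concentration-response for 18-24 h at 37 °C. Viability by CellTiter-Fluor fluorescence (Ex 405/Em 525) after 30 min; luciferase luminescence (BugLite, 15 min, RT) read afterwards.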
# % is scaled to controls: 0 for no effect and ±100 for the full control effect; potency is read from the fitted curve at half-maximal effect.
Compound,Potency,"activity change, negative = cytotoxicity"
COc1ccccc1NC(=O)CSc1nnc(Cc2ccccc2)o1,"inconclusive: 32.6 µM [activator, partial curve, poor fit]",
COc1ccc(CN(CC2CCC(C(=O)O)CC2)C(=S)Nc2cc(C)ccc2C)cc1 (stereo not given),,inactive: -12.1%
COc1ccc2nc(SCC(=O)N(C)C3CCCCC3)c(C#N)cc2c1,,inactive: -15.6%
CCc1ccc(OCc2n[nH]c(=S)n2Cc2ccccc2)cc1,,inactive: 0.117%
COC(=O)c1sc(N)c(C(=O)OC)c1COC(=O)C1CC(=O)N(Cc2ccco2)C1 (stereo not given),,inactive: -6.26%
Cc1cccc(C)c1NC(=O)CNC(=O)c1c(C)nn(-c2ccccc2)c1Cl,,inactive: 12.9%
CCOc1cc(C#N)c(NC(=O)c2ccc(OC)c(S(=O)(=O)N3CCCCC3)c2)cc1OCC,,inactive: -11.3%
COc1cc(N=c2ssnc2Cl)c(OC)cc1Cl,"inconclusive: 4.61 µM [falling, single point]",
CCN(C(=O)CSc1nc(-c2ccc(C(C)C)cc2)no1)c1ccccc1,,inactive: -8.93%
COc1ccc(S(=O)(=O)Nc2ccccc2-c2nnn(CC(=O)Nc3ccccc3OC)n2)cc1,"inconclusive: 32.6 µM [falling, partial curve, poor fit]",
O=C(CN1CCCC1)Nc1nnc(-c2cccs2)s1,,inactive: -4.99%
CN(C)CCn1c(=S)[nH]c2ccccc2c1=O,"inconclusive: 32.6 µM [activator, partial curve, poor fit]",
CCOC(=O)c1c(/N=C/c2cccc([N+](=O)[O-])c2O)sc(C)c1C,"inconclusive: 23.1 µM [falling, partial curve, poor fit]",
Cc1ccc(N2C(=O)c3cccc4c(N5CCN(C)CC5)ccc(c34)C2=O)c2cccnc12,"inconclusive: 3.66 µM [activator, partial curve]",
Nc1cc(=O)[nH]c(SCc2ccccc2Cl)n1,"inconclusive: 0.82 µM [falling, full curve, poor fit]",
CCSc1nnc(NC(=O)c2cc(C)oc2C)s1,"inconclusive: 8.2 µM [activator, partial curve, poor fit]",
COc1ccc(-c2csc(NC3OC(=O)c4c3ccc(OC)c4OC)n2)cc1OC (stereo not given),"inconclusive: 32.6 µM [falling, partial curve, poor fit]",
COc1ccc(-n2c(SCC(=O)Nc3ccccc3)nc(O)cc2=O)cc1,"inconclusive: 29.1 µM [activator, partial curve, poor fit]",
O=C(COC(=O)/C=C/c1ccccc1)NCCc1ccc(F)cc1,,inactive: 3.34%
CCC(Sc1nc(C)cc(C)n1)C(=O)NC1=NN=C(c2ccc(C)cc2)CS1 (stereo not given),"inconclusive: 16.4 µM [falling, single point]",
CN(C)CCNCCCNc1c2ccccc2nc2cccc([N+](=O)[O-])c12,,inactive: -27.5%
Cc1ccc(NC(=O)c2cc(=O)c3ccccc3o2)cc1S(=O)(=O)N1CCCCC1,,inactive: -19.8%
COc1cccc(C2CC(=O)Nc3c2c(=O)n(C)c2nc4ccccc4n32)c1 (stereo not given),"inconclusive: 16.4 µM [falling, partial curve, poor fit]",

# Rewritten as tab-separated lines: entries from further up
Compound	Potency	activity change, negative = cytotoxicity
CCOC(=O)c1c(/N=C/c2cccc([N+](=O)[O-])c2O)sc(C)c1C	inconclusive: 23.1 µM [falling, partial curve, poor fit]	
Cc1ccc(N2C(=O)c3cccc4c(N5CCN(C)CC5)ccc(c34)C2=O)c2cccnc12	inconclusive: 3.66 µM [activator, partial curve]	
Nc1cc(=O)[nH]c(SCc2ccccc2Cl)n1	inconclusive: 0.82 µM [falling, full curve, poor fit]	
CCSc1nnc(NC(=O)c2cc(C)oc2C)s1	inconclusive: 8.2 µM [activator, partial curve, poor fit]	

# Additional results

Compound,Potency,"activity change, negative = cytotoxicity"
Cc1ccc(S(=O)(=O)N2CCOC23CCN(C(=O)c2ccccc2Br)CC3)cc1,,inactive: -3.18%
Brc1ccc(-c2nnc(-c3ccccc3)c(N3CCSCC3)n2)cc1,"inconclusive: 0.206 µM [activator, full curve, poor fit]",
NC(=NCCc1c[nH]c2ccccc12)NS(=O)(=O)c1ccc2ccccc2c1,"inconclusive: 29.1 µM [falling, single point]",
CC1(C)Cc2c(sc3ncnc(NNC(=S)NCc4ccccc4)c23)CO1,"inconclusive: 5.17 µM [falling, partial curve, poor fit]",
CCOC(=O)c1sc(NC(=O)CCN2C(=O)c3cccc([N+](=O)[O-])c3C2=O)c(C(=O)OCC)c1C,"inconclusive: 16.4 µM [falling, single point]",
Cc1[nH]n(-c2ccccc2)c(=O)c1N=Nc1ccc(C(=O)O)cc1,"inconclusive: 23.1 µM [falling, partial curve, poor fit]",
C=CCn1c(Sc2ncc([N+](=O)[O-])s2)n[nH]c1=O,"inconclusive: 29.1 µM [falling, single point]",
CN1C(=O)C2(OCC(COc3ccc(Cl)cc3)O2)c2ccccc21 (stereo not given),,inactive: -10.3%
C=CCn1c(N)c(C(=O)Nc2cccc(C)c2)c2nc3ccccc3nc21,"inconclusive: 29.1 µM [falling, single point]",
COc1ccc(C2CCCCCN2Cc2nc3ccccc3c(=O)n2CC(N)=O)cc1 (stereo not given),"inconclusive: 25.9 µM [falling, partial curve, poor fit]",
COc1ccc([N+](=O)[O-])c(S(=O)(=O)c2ccccc2)n1,"inconclusive: 18.4 µM [falling, single point]",
Cc1nn(C)c2ncc(C(=O)c3cc(F)ccc3O)cc12,,inactive: 7.57%
COc1ccc(-c2c([C@H]3[C@H]4C=CC[C@@H](C)[C@@H]4C(=O)N3Cc3ccccc3)ccc3ccccc23)cc1OC,"inconclusive: 20.6 µM [falling, partial curve, poor fit]",
COc1cc(/C(C)=N/NC(=O)c2ccc(CSc3nncn3C)cc2)cc(OC)c1OC,,inactive: 2.21%
O=C(CS)Nc1ccc2ccccc2c1,inactive,
COc1cc(C(=O)Nc2nonc2-c2ccc(Cl)cc2)cc(OC)c1OC,,inactive: 3.78%
CCN(CC)CCn1c(SCC(=O)Nc2ccc3c(c2)CCC3)nc2ccccc2c1=O,"inconclusive: 29.1 µM [falling, single point]",
CC(C)c1ccc(NC(=O)CCn2c(=O)c3cccn3c3ccccc32)cc1,,inactive: -12.4%
COc1ccc(C2C=C3CNS(=O)(=O)C3CC2OC(=O)c2cccs2)cc1 (stereo not given),"inconclusive: 20.6 µM [falling, partial curve, poor fit]",
CN(Cc1cccc2cnccc12)C(=O)c1cc(COc2ccc(F)cc2F)on1,,inactive: -4.2%
Cc1ccc(S(=O)(=O)NNC(=O)c2cnn(-c3ccccc3)c2-n2cccc2)cc1,"inconclusive: 23.1 µM [activator, partial curve, poor fit]",
CC12CCC(=O)C=C1CCC1C2CCC2(C)C1CCC2(O)C(=O)CO (stereo not given),,inactive: -15.1%

# From PubChem BioAssay AID504648 (National Center for Advancing Translational Sciences (NCATS), 2011)
